Data: paper PMC6117100
Results are given in words; binding and its absence hold for the method and conditions named. Binding can be weak; no strength is given. Tags and fused reporters may be left off the sequences shown.

Molecular target: SIVcol Nef wt (MaMTH Bait, V5-tagged) (SIVcol (from Colobus guereza))
Test: two-hybrid

B1: SERINC5 (MaMTH Prey, FLAG-tagged) (protein, UniProt Q86VE9 1-423)
chain: MSAQCCAGQLACCCGSAGCSLCCDCCPRIRQSLSTRFMYALYFILVVVLCCIMMSTTVAHKMKEHIPFFEDMCKGIKAGDTCEKLVGYSAVYRVCFGMACFFFIFCLLTLKINNSKSCRAHIHNGFWFFKLLLLGAMCSGAFFIPDQDTFLNAWRYVGAVGGFLFIGIQLLLLVEFAHKWNKNWTAGTASNKLWYASLALVTLIMYSIATGGLVLMAVFYTQKDSCMENKILLGVNGGLCLLISLVAISPWVQNRQPHSGLLQSGVISCYVTYLTFSALSSKPAEVVLDEHGKNVTICVPDFGQDLYRDENLVTILGTSLLIGCILYSCLTSTTRSSSDALQGRYAAPELEIARCCFCFSPGGEDTEEQQPGKEGPRVIYDEKKGTVYIYSYFHFVFFLASLYVMMTVTNWFNHVRSAFHLLP
  binding: binds
